# Out of some 400,000 compounds screened, about 13,000 (3.2%) were called active. The inconclusive results got no clear call from the source; some entries with a clear call stand among them for comparison. The call rests on the fitted dose curve; in most records, active means well fitted cell-killing curve with a large enough effect; inconclusive means small, poorly fitted or top-dose-only effect, or effect the other way; inactive means flat fitted curve, though single readings scatter. Where the call is inconclusive, the potency comes from a doubtful curve fit.
# Experiment: qHTS assay for MDR1-selective chemotherapeutics: Primary screen using the drug-selected MDR subline cells KB-V1; further: nearly all actives have a fitted effect of over 60% in size
# Conditions: KB-V1 MDR cells viability, CellTiter-Glo, 72 h; activity change, negative = cytotoxicity: at 46.1 µM (top of the series)
# Method in brief: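 Potencies derive from concentration-effect curves fitted to normalized luminescence (CellTiter-Glo) of KB-V1 cells treated for 72 h at 37 degrees C in phenol-red-free DMEM containing 10% FBS.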
# On the % scale 0 is the no-effect control and ±100 the full control effect; potency means the concentration at half of the fitted maximal effect.
Structure (SMILES),"activity change, negative = cytotoxicity",Potency
CC(C)(C(=O)N1CCC1(C)C(=O)NS(=O)(=O)c1cccc(Cl)c1)c1ccccc1 (configuration not stated),inactive: 2.67%,
c1ccc(CNc2ncnc3nc[nH]c23)nc1,,"inconclusive: 14.6 µM [rising, partial curve, poor fit]"
N#Cc1ccccc1OCC(=O)N1CCc2ccccc2C1,,"inconclusive: 18.4 µM [cytotoxic, single point]"
COc1ccccc1NC(=O)CSC1CC(=O)N(c2ccc3c(c2)OCO3)C1=O (configuration not stated),inactive: -2.23%,
CC(C)(C)OC(=O)N1CCC(c2c(C(=O)NCC3CCN(C4CCCC4)C3)cnn2-c2cccc(Cl)c2)CC1 (configuration not stated),inactive: 5.79%,
O=C(CCCCn1c(=O)[nH]c2ccsc2c1=O)NCCc1ccccc1,inactive: 11.4%,
CCCc1cnc2c(c1SCc1ccc(C(F)(F)F)cc1)c(=O)n(C)c(=O)n2C,,"inconclusive: 18.4 µM [cytotoxic, single point]"
O=C(CSC1=Nc2ccccc2C2CC=NN12)Nc1ccc2c(c1)OCO2 (configuration not stated),inactive: -3.36%,
CC(C)(Oc1ccc(Cl)cc1)C(=O)NCC(c1ccco1)N1CCCCC1 (configuration not stated),,"inconclusive: 9.2 µM [cytotoxic, partial curve]"
C=CCNC(=S)NNC(=O)c1cccn(Cc2cccc(Cl)c2)c1=O,,"inconclusive: 18.4 µM [cytotoxic, single point]"
CCOC(=O)N1CCN(C2=Nc3cccc4cccc2c34)CC1,,"inconclusive: 10.3 µM [cytotoxic, partial curve]"
O=C(NCc1ccco1)c1cccnc1-c1nc2ccccc2s1,,active: 13 µM
Cc1ccc(S(=O)(=O)Cc2ccc(C(=O)N3CCC(C)CC3)cc2)cc1,,"inconclusive: 8.2 µM [cytotoxic, partial curve]"
CNC(=O)c1ccsc1NC(=O)c1ccc(S(=O)(=O)N2CCOCC2)cc1,,"inconclusive: 10.3 µM [cytotoxic, partial curve, poor fit]"
Cc1cccc(OCc2n[nH]c(=S)n2C2CCCCC2)c1,inactive: -7.84%,
Cc1ccc(NCC(=O)Nc2ccc(Br)cc2)cc1F,,"inconclusive: 20.6 µM [rising, single point]"
CN(C)S(=O)(=O)N(CC(=O)Nc1ccc(S(=O)(=O)N2CCCC2)cc1)c1ccccc1,,"inconclusive: 13 µM [cytotoxic, partial curve]"
CCOc1ccc(CCNC(=O)c2ccc3ccccc3n2)cc1OCC,inactive: -27.2%,
CCOC(=O)C1CCCN(C(=O)c2cccc3ccccc23)CC1 (configuration not stated),inactive: 2.97%,
COC(=O)c1cc(O)c(O)c(O)c1,,"inconclusive: 4.61 µM [rising, full curve, poor fit]"
Cc1ccc(N2C(=S)NC3c4ccccc4OC2(C)C3C(=O)N(C)C)cc1 (configuration not stated),,"inconclusive: 29.1 µM [cytotoxic, single point]"
CCCCN(CCCC)C(=O)c1cc(Cl)ccc1[N+](=O)[O-],,active: 23.1 µM
COc1cc(/C=N/NC(N)=O)ccc1OCC(=O)Nc1ccc(C)c(C)c1,inactive: -3.49%,
COc1ccc(C(=O)/C=C/c2ccc(OC(=O)c3cc(OC)c(OC)c(OC)c3)cc2)cc1,,"inconclusive: 23.1 µM [cytotoxic, single point]"

# Single entries from the results shown:
# Under Potency, CNC(=O)c1ccsc1NC(=O)c1ccc(S(=O)(=O)N2CCOCC2)cc1 shows inconclusive: 10.3 µM [cytotoxic, partial curve, poor fit]
# Under Potency, CCCCN(CCCC)C(=O)c1cc(Cl)ccc1[N+](=O)[O-] shows active: 23.1 µM

# (continued)

Structure (SMILES),"activity change, negative = cytotoxicity",Potency
CCn1c(SCC(=O)N2CCc3ccccc32)nnc1-c1c[nH]c2ccccc12,,"inconclusive: 29.1 µM [cytotoxic, single point]"
COc1ccc(OC)c(-c2noc(N3CCN(c4cccc(C)c4C)CC3)n2)c1,,"inconclusive: 29.1 µM [cytotoxic, single point]"
Cc1ccc(NC(=O)CSC2=C(C#N)C(c3ccco3)CC(=O)N2)cc1 (configuration not stated),,"inconclusive: 16.4 µM [cytotoxic, single point]"
COc1ccc2c(c1)c(=O)c(C(=O)c1ccccc1)cn2Cc1ccccc1,inactive: -2.66%,
COc1ccc(CC(=O)Nc2c3c(nn2-c2cccc(Cl)c2)CS(=O)C3)cc1 (configuration not stated),inactive: -4.66%,
COc1cccc(C(NC(C)=O)c2nc(-c3cccc(C(C)C)c3)cs2)c1 (configuration not stated),inactive: 0.147%,
COc1ccc(NC(=O)CSc2ccc3c4c(cccc24)C(=O)c2ccccc2-3)cc1,,"inconclusive: 8.2 µM [cytotoxic, partial curve]"
COc1ccc(C(=O)C2CCN(C(=O)c3ccc(F)cc3)CC2)cc1,,"inconclusive: 4.61 µM [cytotoxic, partial curve, poor fit]"
COc1cccc(C#CC2=CC(=O)CC(C)(C)C2)c1,,"inconclusive: 16.4 µM [cytotoxic, single point]"
O=CNCc1nc2ccccc2n1CCc1ccccc1,,"inconclusive: 23.1 µM [rising, single point]"
O=C(COc1cccc2ccccc12)NNC(=O)c1cnccn1,,"inconclusive: 6.51 µM [cytotoxic, full curve]"
OC1(Cc2cc(-c3ccccc3)no2)CCN(CCCc2ccccc2)CC1,inactive: -1.35%,
Cc1ccc(N(CC(=O)N2CCc3ccccc3C2)S(C)(=O)=O)cc1,,"inconclusive: 18.4 µM [cytotoxic, single point]"
O=C(CSc1nc2ccccc2c(=O)[nH]1)Nc1ccc(Br)cc1,,"inconclusive: 29.1 µM [rising, single point]"
Cc1ccc2oc(C(=O)Nc3sc4c(c3C(=O)NCc3cccnc3)CCCC4)cc(=O)c2c1,inactive: 5.8%,
O=C(NCC(=O)N1CCOCC1)OCc1ccccc1,,"inconclusive: 14.6 µM [cytotoxic, single point]"
CCOC(=O)C1(Cc2ccccc2Cl)CCN(S(C)(=O)=O)CC1,,"inconclusive: 23.1 µM [cytotoxic, single point]"
CCOC(=O)/C(C#N)=C/c1ccc(-c2ccc(C)cc2)o1,,"inconclusive: 4.61 µM [rising, full curve, poor fit]"
CC1CCCN(CC(O)COc2ccc(-c3ccccc3)cc2)C1 (configuration not stated),inactive: -13.1%,
Cc1ccc(C(=O)N2CC(=O)Nc3ccc(F)cc3C2c2ccccc2)cc1[N+](=O)[O-] (configuration not stated),,active: 14.6 µM
COC(=O)c1cccc(S(=O)(=O)N2CCC(C)CC2)c1,,active: 20.6 µM
COc1ccc(CSc2nnnn2Cc2ccccc2)cc1OC,,active: 23.1 µM
C[C@@H]1CN([C@H](C)CO)S(=O)(=O)c2ccc(-c3ccc(C(=O)N(C)C)cc3)cc2O[C@H]1CN(C)C(=O)Cc1ccccn1,inactive: -3.28%,
